Assay results taken from PubChem BioAssay AID252 (DTP/NCI, 2004).
The list is a part of this screen's results and no random one: it gathers tests that were run many times, whatever their T/C, doses with no T/C, and many T/C values between a quarter and a half above the control. Other doses and runs of a compound stand elsewhere. T/C is the treated group as % of the vehicle group. Some doses have a count of surviving animals in place of a T/C: the source files T/C as zero there, which appears to mark a toxic dose or a test without result, not a measured value. Some doses without a T/C left all or most animals alive at the check, yet need not have been tolerated: the source hardly ever lists a survival T/C far under the control, and the zero likely stands for such cases as well. Survivors were counted at the toxicity check, usually on the fifth day, unless a day is given; later deaths do not show. Schedules are NCI's codes, taken here to give the interval after Q, in days (D) or hours (H), and the number of doses after X. Some schedule codes hold Z or #, which are not explained here. For survival time, this PubChem deposit counts one and a half times the control or more as active, and values a quarter to a half above the control carry no call in these data; other NCI protocols may use other cut-offs.

Test system: BDF1 mice, intracerebral L1210 leukemia, survival T/C
Assay: NCI In Vivo Anticancer Drug Screen. Data for tumor model L1210 Leukemia (intracerebral) in B6D2F1 (BDF1) mice
Conditions: higher T/C = longer survival
Protocol: The antitumor activity of compounds was measured in mice bearing transplantable tumors. Survival or tumor size were measured and the results are expressed as the measurement made in the treated group (T) divided by the measurement made in the vehicle treated control group (C). The tumor model used in this assay is L1210 Leukemia (intracerebral) in B6D2F1 (BDF1) mice

CCOC1=C(N2CC2)C(=O)C(OCC)=C(N2CC2)C1=O
T/C (T/C endpoint: mean survival time, dose: 2.0 mg/kg/injection, schedule: Q01DX009 (ip), vehicle: saline): 133 % of control | T/C (T/C endpoint: mean survival time, dose: 4.0 mg/kg/injection, schedule: Q01DX009 (ip), vehicle: saline): 143 % of control | survivor count (T/C endpoint: mean survival time, dose: 8.0 mg/kg/injection, schedule: Q01DX009 (ip), vehicle: saline): 6 of 6

Nc1nncs1
T/C (T/C endpoint: mean survival time, dose: 40.0 mg/kg/injection, schedule: Q01DX009 (ip), vehicle: saline): 131 % of control | T/C (T/C endpoint: mean survival time, dose: 60.0 mg/kg/injection, schedule: Q01DX009 (ip), vehicle: saline): 139 % of control | T/C (T/C endpoint: mean survival time, dose: 90.0 mg/kg/injection, schedule: Q01DX009 (ip), vehicle: saline): 132 % of control | T/C (T/C endpoint: median survival time, dose: 128.0 mg/kg/injection, schedule: Q01DX005 (ip), vehicle: saline with Tween-80): 133 % of control | T/C (T/C endpoint: median survival time, dose: 256.0 mg/kg/injection, schedule: Q01DX005 (ip), vehicle: saline with Tween-80): 138 % of control

O=C(Nc1ccc(C2=NCCN2)cc1)c1ccc(C(=O)Nc2ccc(C3=NCCN3)cc2)cc1
survivor count (T/C endpoint: mean survival time, dose: 500.0 mg/kg/injection, schedule: Q01DX Z (ip), vehicle: carboxymethylcellulose (CMC)): 1 of 6

O=NN(CCCl)C(=O)NC12CC3CC(CC(C3)C1)C2
T/C (T/C endpoint: mean survival time, dose: 60.0 mg/kg/injection, schedule: Q01DX001 (ip), vehicle: carboxymethylcellulose (CMC)): 130 % of control

CCOC(=O)C(CC(C)C)NC(=O)C(Cc1ccc(N(CCCl)CCCl)cc1)NC(C)=O (stereo not given)
survivor count (T/C endpoint: mean survival time, dose: 8.0 mg/kg/injection, schedule: Q01DX009 (ip), vehicle: DMSO): 7 of 10 | survivor count (T/C endpoint: mean survival time, dose: 16.0 mg/kg/injection, schedule: Q01DX009 (ip), vehicle: DMSO): 8 of 10

O=c1n(CC2CO2)c(=O)n(CC2CO2)c(=O)n1CC1CO1 (stereo not given)
T/C (T/C endpoint: median survival time, dose: 30.0 mg/kg/injection, schedule: Q01DX009 (ip), vehicle: saline): 132 % of control | T/C (T/C endpoint: median survival time, dose: 50.0 mg/kg/injection, schedule: Q01DX009 (ip), vehicle: saline): 132 % of control

CN1CCN(CCCN2c3ccccc3Sc3ccc(Cl)cc32)CC1
survivor count (T/C endpoint: mean survival time, dose: 37.5 mg/kg/injection, schedule: Q01DX009 (ip), vehicle: saline): 2 of 6
